Protein sequences, listed by entry. Tags and fused reporters are not part of them.
UniProt Q96P20, whole entry: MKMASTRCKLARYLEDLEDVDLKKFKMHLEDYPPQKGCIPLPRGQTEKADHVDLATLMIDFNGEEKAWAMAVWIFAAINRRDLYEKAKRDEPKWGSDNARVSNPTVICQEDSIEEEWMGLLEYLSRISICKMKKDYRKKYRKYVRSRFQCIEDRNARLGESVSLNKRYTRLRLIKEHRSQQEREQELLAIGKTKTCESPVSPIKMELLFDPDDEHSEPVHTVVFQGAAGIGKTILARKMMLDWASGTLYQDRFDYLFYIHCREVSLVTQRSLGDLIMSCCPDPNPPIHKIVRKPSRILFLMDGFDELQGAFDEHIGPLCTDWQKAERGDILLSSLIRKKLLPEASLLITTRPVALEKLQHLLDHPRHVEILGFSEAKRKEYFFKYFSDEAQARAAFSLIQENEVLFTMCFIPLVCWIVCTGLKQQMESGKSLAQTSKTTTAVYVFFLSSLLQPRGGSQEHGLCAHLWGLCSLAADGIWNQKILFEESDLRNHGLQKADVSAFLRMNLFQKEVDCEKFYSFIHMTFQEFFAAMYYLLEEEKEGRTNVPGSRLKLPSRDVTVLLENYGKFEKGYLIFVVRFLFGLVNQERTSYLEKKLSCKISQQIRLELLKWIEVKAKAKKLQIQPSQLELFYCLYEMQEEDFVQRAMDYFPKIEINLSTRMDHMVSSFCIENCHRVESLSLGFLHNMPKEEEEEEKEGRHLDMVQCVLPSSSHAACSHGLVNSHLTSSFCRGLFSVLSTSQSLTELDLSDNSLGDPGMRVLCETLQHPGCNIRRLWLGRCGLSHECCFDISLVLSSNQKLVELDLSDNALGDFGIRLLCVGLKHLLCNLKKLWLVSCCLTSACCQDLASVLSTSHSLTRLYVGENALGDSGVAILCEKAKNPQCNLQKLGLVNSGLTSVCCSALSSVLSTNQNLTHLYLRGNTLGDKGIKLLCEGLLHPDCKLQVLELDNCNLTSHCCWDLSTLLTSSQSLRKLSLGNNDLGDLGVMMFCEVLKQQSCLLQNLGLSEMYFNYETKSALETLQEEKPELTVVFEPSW

According to patent publication US20260216182A1, “PYRIDAZINE NLRP3 INHIBITOR COMPOUND, PHARMACEUTICAL COMPOSITION, AND PREPARATION METHOD THEREFOR AND USE THEREOF” (CHANGCHUN GENESCIENCE PHARMACEUTICAL CO., LTD., priority 2022, published 2026):

Biological target: NLRP3 (Homo sapiens, UniProt Q96P20)
Experiment: IC50 of NLRP3 inhibitors in reducing IL-1β secretion by THP-1 cells (PMA, LPS, nigericin; ELISA)
Settings: compound + nigericin 1 h

For `CC#Cc1ccc2c(-c3c(C)cc(Cl)cc3O)nnc(NCC(C)(C)O)c2c1`, the IC50 was 13 nM.

The match of structure and compound is tentative.
